PubChem BioAssay AID504764, Drosophila RNAi Screening Center | 2011

Purpose: 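Knock-downs that raise or lower a Notch target reporter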 (primary screen)
Cells: Drosophila Kc167 cells
Reagents: long dsRNA against Drosophila genes
Timing: about 5 days (4 days dsRNA, then 24 h after transfection)
Treatment: transfection of constitutively active membrane-tethered Notch lacking the extracellular domain, read 24 h later
Detection: 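Firefly luciferase from an E(spl)m3 reporter with active Notch, plus control-promoter and uninduced reporter wells for normalisation; unnormalised counts, duplicate wells a and b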
Scale: induced reporter light, run 1, well a and induced reporter light, run 1, well b: higher = more light from the Notch target reporter with active Notch; control promoter light, run 1, well a and control promoter light, run 1, well b: higher = more light from the viral control promoter (cell number, transfection, viability); uninduced reporter light, run 1, well a: higher = more light from the Notch target reporter without active Notch
Call rule: 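Hit if the duplicate-averaged log2 ratio of induced to control-promoter light gives a plate-wise z beyond ±2, or induced to uninduced beyond ±1.8; weak-control or discordant-duplicate wells dropped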
Meaning of the calls: active = modifier hit (raised or lowered Notch signal); inactive = not a hit
The deposit covers about 22,000 reagents; shown is a random part of those with a known target gene and a result. Over the whole deposit, 403 (1.9%) got an active call. 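Unnormalised raw counts per well; ratio z-scores behind the hit calls and whether each hit raises or lowers signal are not deposited.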 Entries without a mark were called inactive. Reagents against one gene are numbered here. Reagent sequences are not shown. Not given: the amount of reagent.

predicted target,reagent,"induced reporter light, run 1, well a","induced reporter light, run 1, well b","control promoter light, run 1, well a","control promoter light, run 1, well b","uninduced reporter light, run 1, well a"
CG18233,1,1.52e5,1.51e5,2.23e5,2.06e5,10860
Frq1,1,43575,28815,28835,25090,4228
Naam,1,1.83e5,1.96e5,1.93e5,2.25e5,12280
CG11298,1,1.75e5,1.84e5,1.94e5,1.86e5,13775
CG18249,1,1.39e5,1.17e5,97855,83870,11200
Fhos,1,2.62e5,2.33e5,2.36e5,2.19e5,14100
Fhos,2,1.18e5,89695,80285,37585,8620
Fhos,3,1.53e5,1.30e5,78385,30435,8855
Fhos,4,1.98e5 (active),1.94e5,1.78e5,1.23e5,8315
CCT5,1,24650,23715,20635,22185,1925
ppk25,1,2.13e5,1.89e5,2.25e5,2.17e5,15420
Tsp68C,1,2.39e5,2.09e5,2.32e5,3.08e5,22075
CG15572,1,1.36e5,1.04e5,2.19e5,2.44e5,10560
Dic3,1,1.73e5,1.40e5,2.12e5,1.62e5,13165
CG15412,1,1.60e5,1.67e5,2.18e5,2.45e5,12940
viaf,1,1.05e5,99335,74240,31400,8570
Srg1,1,1.84e5,1.36e5,2.14e5,1.98e5,12765
CG34005,1,41400,50145,26830,28080,8485
CG4896,1,1.72e5,2.02e5,1.93e5,2.20e5,18878
CG14984,1,1.49e5,1.21e5,1.65e5,1.54e5,6155
ath,1,92205,1.31e5,71820,87840,14260
Dsk,1,1.42e5,1.24e5,95035,1.21e5,7070
CG9673,1,1.14e5,87810,1.33e5,1.01e5,8405
Delta,1,2.05e5,2.00e5,2.22e5,2.43e5,14335

Part of the list above in another layout.
Srg1: induced reporter light, run 1, well a = 1.84e5; induced reporter light, run 1, well b = 1.36e5; control promoter light, run 1, well a = 2.14e5; control promoter light, run 1, well b = 1.98e5; uninduced reporter light, run 1, well a = 12765
CG34005: induced reporter light, run 1, well a = 41400; induced reporter light, run 1, well b = 50145; control promoter light, run 1, well a = 26830; control promoter light, run 1, well b = 28080; uninduced reporter light, run 1, well a = 8485
CG4896: induced reporter light, run 1, well a = 1.72e5; induced reporter light, run 1, well b = 2.02e5; control promoter light, run 1, well a = 1.93e5; control promoter light, run 1, well b = 2.20e5; uninduced reporter light, run 1, well a = 18878
CG14984: induced reporter light, run 1, well a = 1.49e5; induced reporter light, run 1, well b = 1.21e5; control promoter light, run 1, well a = 1.65e5; control promoter light, run 1, well b = 1.54e5; uninduced reporter light, run 1, well a = 6155

The list goes on.
predicted target,reagent,"induced reporter light, run 1, well a","induced reporter light, run 1, well b","control promoter light, run 1, well a","control promoter light, run 1, well b","uninduced reporter light, run 1, well a"
Elk,1,97790,88280,1.56e5,1.55e5,8860
side-VIII,1,1.27e5,1.38e5,1.96e5,1.54e5,10770
side-VIII,2,1.03e5,1.10e5,1.63e5,1.51e5,8180
side-VIII,3,1.40e5,1.19e5,1.32e5,1.52e5,13240
Zdhhc8,1,26165,27955,36185,29515,4110
Zdhhc8,2,1.03e5,84180,2.01e5,2.05e5,7270
Sec24CD,1,2.29e5,1.80e5,1.96e5,1.89e5,16930
Smug,1,2.19e5,2.28e5,2.59e5,2.89e5,18595
CG12035,1,85535,93185,1.35e5,1.91e5,8005
cyc,1,1.49e5,1.30e5,1.22e5,1.25e5,9640
CG13850,1,1.27e5,1.42e5,1.96e5,2.34e5,14430
l(2)37Bb,1,38920,28840,39180,31630,1810
CG5958,1,71565,50470,52735,65645,4310
sca,1,78550,76165,1.33e5,97530,8090
Dd,1,1.43e5,1.18e5,97550,78755,7892
Zfrp8,1,2.03e5,1.99e5,1.57e5,1.79e5,14260
brm,1,61595,38560,51075,44540,2955
Cyp313a5,1,79455,72730,80935,49530,4392
CG1265,1,1.33e5,1.47e5,2.31e5,2.16e5,13655
Gk2,1,91120,80195,1.66e5,1.92e5,6940
CG11227,1,90905,89120,1.08e5,1.00e5,8875
l(3)76BDm,1,1.35e5,93070,88420,92365,9855
CG3526,1,61030,84645,87460,89230,5280
CG3526,2,1.09e5,1.09e5,1.67e5,1.78e5,7430
Spn53F,1,1.44e5,1.07e5,1.06e5,1.29e5,9045
Gnptab,1,2.13e5,2.43e5,2.50e5,2.65e5,21170
